Some of the results follow. These are further read-outs of the screen, such as a control signal, another cell line or another target. No call is given for them. The list favours compounds with an active or inconclusive main result. The note in brackets gives the kind of curve behind each potency; many fits are weak.
Experiment: qHTS Assay for Lipid Storage Modulators in Drosophila S3 Cells;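 on cell number change: cells counted by Cell Tracker Red CMTPX staining in the red channel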
Details: BODIPY lipid droplet fluorescence, 18-24 h; for cell number change: measured here: cell count max response, cells fed with added oleic acid
How it was run: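 Drosophila S3 cells got compounds at several concentrations plus oleic acid (400 uM solution). Laser-scanning cytometry with 488 nm excitation read lipid droplets at 500-530 nm and cells at 575-640 nm. Percent activity was relative to 20 uM Triacsin C.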

[1] = measured here: cell number channel AC50, cells fed with added oleic acid
[2] = measured here: lipid fluorescence (Fed channel) AC50, cells fed with added oleic acid

Row | SMILES | cell number change [%] | AC50 [1] | AC50 [2]
1 | CCCN(CCC)S(=O)(=O)c1ccc(C(=O)Nc2nnc(-c3cccc(OC)c3)o2)cc1 | 35.7 | 4.11 µM [rising, partial curve] | 4.61 µM [rising, partial curve]
2 | CC1(C)CC(=O)C2=C(C1)Nc1nc(SCCN3CCOCC3)[nH]c(=O)c1C2c1cccs1 (centres undefined) | 8.91 | – | 0.731 µM [falling, full curve]
3 | O=[N+]([O-])c1ccc2[nH]c(O)c(N=NC3CCS(=O)(=O)C3)c2c1 (centres undefined) | 14.2 | – | 7.31 µM [rising, partial curve]
4 | Cc1ccc(C)c(NC(=O)C2CCC(C)(C(=O)O)C2(C)C)c1 (centres undefined) | 9.5 | 1.03 µM [falling, full curve] | 0.58 µM [falling, partial curve, poor fit]
5 | CN1C(C(=O)NCc2ccc(OC(F)(F)F)cc2)CC2Cn3c(nc4cc5ccccc5cc43)C21 (centres undefined) | 8.58 | – | 7.31 µM [rising, partial curve]
6 | c1ccc2c(c1)CCc1c(-c3ccncc3)n[nH]c1-2 | – | – | 29.1 µM [falling, partial curve, poor fit]
7 | CCN1C(=O)[C@H]2[C@@H](c3ccc(-c4ccccc4)cc3)N3CCC[C@@]3(C(=O)OC)[C@H]2C1=O | -3.3 | 0.461 µM [falling, partial curve, poor fit] | –
8 | Cc1ccc2nc(N/C(N)=N/S(=O)(=O)c3ccc([N+](=O)[O-])cc3)nc(C)c2c1 | 17 | – | 16.4 µM [rising, single point]
9 | COc1ccc(C(=O)N=c2sccn2C)cc1 | 3.65 | – | –
10 | Cc1cccc(C)c1N1CCN(c2ccc3nnc(C(F)(F)F)n3n2)CC1 | -0.34 | – | –
11 | CNC(=O)COc1ccc(-c2nn(C)c(=O)c3ccccc23)cc1 | – | 3.66 µM [rising, partial curve, poor fit] | 0.731 µM [rising, single point]
12 | CCC(=O)N1CCc2cc(OC)c(OC)cc2C1COc1ccc(C(=O)OC)cc1 (centres undefined) | – | 6.51 µM [rising, single point] | 4.11 µM [rising, partial curve]
13 | CCOC(=O)C1=C(C)NC(C)=C(C(=O)OCC)C1C(=O)OCC(N)=O | 51.2 | 0.13 µM [rising, full curve, poor fit] | 29.1 µM [rising, single point]
14 | CCCc1ccc(NC(=O)C2CCN(c3cnccn3)CC2)cc1 | – | 4.11 µM [rising, partial curve] | 5.17 µM [rising, single point]
15 | Cc1ccc(C(=O)NC2CCN(C(=O)Nc3ccccc3Cl)CC2)cc1 | 3.85 | – | 29.1 µM [rising, single point]
16 | COc1ccc(/C=N/NC(=O)CSc2ccccc2)cc1OC | 44.1 | 2.59 µM [rising, partial curve] | 1.84 µM [rising, full curve]
17 | Cc1ccc(NC(=O)CCNS(=O)(=O)c2ccc3c(c2)CCC(=O)N3)cc1C | -11.8 | – | 6.51 µM [rising, single point]
18 | Cc1cccc(C(=O)OCC(=O)N2CC(C)OC(C)C2)c1C (centres undefined) | 7.69 | – | 0.0651 µM [falling, full curve, poor fit]

Row | SMILES | cell number change [%] | AC50 [1] | AC50 [2]
19 | CCCOc1ccc(C(=O)C(CN2CCCC2)c2ccccc2)cc1 (centres undefined) | -36.3 | 32.6 µM [falling, single point] | 23.1 µM [falling, partial curve]
20 | O=C(O)CCN1c2ccccc2Sc2ccccc21 | -52.3 | 20.6 µM [falling, single point] | 23.1 µM [falling, single point]
21 | CC(=O)NC(CC(=O)NCC(c1ccco1)N(C)C)c1ccccc1 (centres undefined) | -8.85 | – | 0.82 µM [falling, single point]
22 | COc1cccc(C(=O)Nc2cc(C(=O)NCCc3ccccc3)ccc2Cl)c1 | 52.8 | 1.16 µM [rising, full curve, poor fit] | 6.51 µM [rising, single point]
23 | CSCCC(NS(=O)(=O)c1ccc(Cl)cc1)C(=O)O (centres undefined) | -33.8 | 0.82 µM [falling, full curve, poor fit] | –
24 | O=C(NC1CCS(=O)(=O)C1)/C(=C\c1ccco1)NC(=O)c1ccccc1 (centres undefined) | -14.2 | 0.164 µM [falling, full curve, poor fit] | –
25 | O=C(Nc1nnc(SCc2ccc(F)cc2)s1)c1ccccn1 | -8.95 | 0.58 µM [falling, full curve, poor fit] | 2.31 µM [falling, partial curve, poor fit]
26 | Cc1cccc(NCc2nc(SCC(=O)Nc3ccccc3Br)n[nH]2)c1 | 13.5 | – | 0.103 µM [rising, full curve, poor fit]
27 | COc1cc(-c2nn3c(-c4ccccc4)nnc3s2)cc(OC)c1OC | 38.1 | 13 µM [rising, partial curve] | 0.259 µM [rising, full curve]
28 | CCCCn1c(SCC(=O)OC)nc2c1c(=O)n(C)c(=O)n2C | -18.8 | – | 0.00517 µM [falling, full curve]
29 | CC(/C=C/C=C/c1ccccc1)=N/NC(=O)CNc1ccccc1C | 8.22 | – | 29.1 µM [falling, single point]
30 | O=C(CN1CCCCCC1)Nc1cc([N+](=O)[O-])ccc1Cl | 5.46 | – | 0.206 µM [rising, single point]
31 | O=C(Nc1cccc(S(=O)(=O)c2cccc(NC(=O)c3ccco3)c2)c1)c1ccco1 | -12.5 | – | –
32 | COc1ccc(/C=N/Nc2ccccc2)cc1Cn1nc(C)c([N+](=O)[O-])c1C | – | – | 6.51 µM [rising, single point]
33 | COc1ccc(Cl)cc1NC(=O)CN(C)CC(=O)NCc1cccs1 | 10.1 | – | 0.058 µM [rising, full curve, poor fit]
34 | CCN(CC)C(=O)CSc1nc2ncccc2[nH]1 | 11 | 0.092 µM [falling, full curve, poor fit] | –
35 | COc1ccc2c3n(nc2c1)CCN=C3c1cc(Cl)c(N)c(Cl)c1 | -12.3 | – | 5.8 µM [rising, full curve, poor fit]

Copied from the list.
Value of O=C(Nc1nnc(SCc2ccc(F)cc2)s1)c1ccccn1 under AC50 [2]: 2.31 µM [falling, partial curve, poor fit]
Value of O=C(NC1CCS(=O)(=O)C1)/C(=C\c1ccco1)NC(=O)c1ccccc1 (centres undefined) under cell number change [%]: -14.2

— PubChem BioAssay AID2685 (National Center for Advancing Translational Sciences (NCATS), 2010)
